# Results published in PMC12040169 (PLOS Biology, 2025).
# Some of the results follow.
# System: T1, CTL2-GFP (C. trachomatis L2/434/Bu, GFP-expressing)
# T1 construct: L2/434/Bu, GFP-expressing
# Set-up: species or system HeLa; Intracellular C. trachomatis growth in HeLa cells, bulk GFP fluorescence relative to DMSO
# Details: bulk GFP, single well; 28.5 h, 10 µM; inhibitor
row,Structure (SMILES),% of control remaining [%]
1,COc1cc(C(=O)NCCN2CCCC2)ccc1Nc1cncc(-c2ccc(O)cc2)n1 [CBK122661],105.704
2,CCc1ccc(CNC(=O)Cn2cnc(-c3ccc(CN4CCC(C)CC4)cc3)c2)cc1 [CBK158710T],95.1623
3,O=C(Cc1ccccc1)Nc1ccccc1C(=O)NCc1cccnc1 [CBK269228],127.356
4,Cc1nc(CCN2CCN(c3ccc4nccn4n3)CC2)cs1 [CBK306932],98.084
5,CSc1cccc(NC(=O)NCCN2CCNC2=O)c1 [CBK057191],150.442
6,COc1nccnc1-c1ccccc1Cl [CBK107000],129.058
7,Cc1ncccc1COC(=O)N1c2ccc(F)cc2CCC1C (centres unmarked) [CBK200139],104.3
8,O=C(/C=C/c1cccc([N+](=O)[O-])c1)Nc1ccc(O)cc1C(=O)O [CBK263615],126.349
9,C=CCNC(=O)c1ccccc1NC(=O)Cc1ccc(Cl)cc1 [CBK270086],97.6376
10,CC1=C(CCN2CCCC(CO)C2)C(C)(C)CCC1 (centres unmarked) [CBK020827],105.281
11,COc1ccc(-c2nccnc2N2CCN(C)CC2)cc1 [CBK038012],95.0456
12,CCC(C)[C@H](NC(=O)N1CCN(C(=O)c2cc3ccccc3[nH]2)CC1)C(=O)O (some centres unmarked) [CBK286725],109.303
13,CC(C)Nc1cncc(Sc2ccccc2O)n1 [CBK091438],107.586
14,FC(F)(F)c1ccnc(Sc2nccs2)n1 [CBK093771],100
15,Cc1cccc(-c2noc([C@@H]3Cc4[nH]cnc4CN3C(=O)CC(C)(C)CC(=O)O)n2)c1 [CBK288961],115.424
16,CCOC(=O)c1cnn(C2CCCN(c3ccc(C#N)nc3)C2)c1 (centres unmarked) [CBK306458],121.414
17,CC1CCC(C(N)=O)CN1C(=O)c1cncc(Br)c1 (centres unmarked) [CBK305773],178.352
18,COC(=O)C1CC(O)CC1C(=O)N1CCCC1 (centres unmarked) [CBK011029],119.281
19,O=C(O)CCc1nc2ccccc2s1 [CBK264071],102.638
20,CN(C)CCN1CCN(c2nc(-c3occc3C=O)cnc2N)CC1 [CBK063917],118.442
21,Cc1nnc(NS(=O)(=O)c2ccc(Br)cc2)s1 [CBK068266],102.221
22,Cc1cc(C)c(C)c(OCCCNC(=O)Cc2c(C)noc2C)c1 [CBK281506],123.469
23,CC(c1cccs1)N(C)C(=O)NC1CCCc2c1cnn2CCO (centres unmarked) [CBK306289],87.3658
24,COc1cc(CN2CCN(C3CCCCC3)CC2)cc(OC)c1OC [CBK263407],105.576
25,CCOC(=O)c1ccc(NC(=O)C(C)Oc2ccccc2C)cc1 (centres unmarked) [CBK268660],148.156
26,O=C(CSc1ccccc1)NCc1ccncc1 [CBK058023],148.622
27,C[C@H]1CN(C(=O)c2cc(C3CC3)no2)[C@@H](C)CN1Cc1ccco1 [CBK281736],117.517

# A stretch taken from the entries so far, as a working copy:
row,Structure (SMILES),% of control remaining [%]
7,Cc1ncccc1COC(=O)N1c2ccc(F)cc2CCC1C (centres unmarked) [CBK200139],104.3
8,O=C(/C=C/c1cccc([N+](=O)[O-])c1)Nc1ccc(O)cc1C(=O)O [CBK263615],126.349

# More compounds

row,Structure (SMILES),% of control remaining [%]
1,Cc1csc2c(C3CCN(C(=O)c4cccnc4)CC3)nc(C)n12 [CBK285242],135.776
2,CCOC(=O)c1sc(Nc2nc(C)cc(OC)n2)nc1C [CBK264822],87.4425
3,CN1CCN(CCC(=O)N/N=C/c2cccc(Br)c2)CC1 [CBK261496],99.9569
4,Cc1[nH]c2ccccc2c1/C=N/c1ccc(S(N)(=O)=O)cc1 [CBK261352],36.0942
5,CCCc1nc(NC(c2cccc(C)n2)C2CC2)c2cnn(C)c2n1 (centres unmarked) [CBK306795],132.459
6,Cc1cccc(-c2csc3c(=O)[nH]c(N4CCC(C(=O)NCCN5CCOCC5)CC4)nc23)c1 [CBK215640],110.061
7,Cc1cccc2c1[nH]c1nc(N/N=C\c3ccc(-c4cccc([N+](=O)[O-])c4)o3)nnc12 [CBK262373],114.815
8,Cc1nc2ncnn2c(C)c1CCC(=O)OCc1ccc(C#N)cc1 [CBK305838],101.225
9,O=[N+]([O-])c1cc(S(=O)(=O)N2CCCCCC2)ccc1NCc1ccccc1 [CBK262804],124.5
10,O=C(c1cccs1)N1CCC(n2c(=O)oc3ccccc32)CC1 [CBK284347],128.689
11,O=C1CN(C(=O)Nc2ccc3c(c2)OCCO3)CCN1 [CBK155860],86.7652
12,Cn1ccnc1CNc1nc(C(C)(C)C)nc2c1cnn2C [CBK306894],139.205
13,Cc1cccc(CC(=O)N2CCC(c3ncc(C(=O)Nc4ccc(F)cc4)c(C)n3)CC2)c1 [CBK285885],103.684
14,CC(=O)Nc1ccc(C(=O)N(Cc2ccccn2)CC2CCCO2)cn1 (centres unmarked) [CBK306784],105.844
15,Cn1ccc(C(=O)N2CCC[C@H](C(=O)c3ccc(F)cc3)C2)n1 [CBK284333],91.5936
16,O=C(CCSc1nc(-c2ccco2)cc(C(F)(F)F)n1)Nc1ccc2c(c1)OCO2 [CBK267627],98.6473
17,Cc1ccc(-c2nc3ncccc3o2)cc1NC(=O)c1cccnc1 [CBK268774],172.064
18,O=C(Cn1c(-c2cccs2)cc2cccnc21)N1CCCCC1 [CBK282619],100.056
19,COc1ccc(C)cc1S(=O)(=O)N1CCc2c(CN3CCOCC3)cccc21 [CBK113630T],134.125
20,CC(C)(C)C(=O)CSc1nnc(Cn2cnc(Cl)c2Cl)o1 [CBK011055],145.779
21,CN(C)CC(C)(C)CNC(=O)c1cc(C(=O)c2ccc(Cl)cc2Cl)c[nH]1 [CBK107416],91.5977
22,COc1ccc([C@@]23CCC(NC(=O)Nc4ccc5c(c4)Cc4ccccc4-5)C[C@@H]2N(C)CC3)cc1OC (some centres unmarked) [CBK047550T],115.672
23,O=C(NC1CCN(CC2(c3ccccc3)CC2)CC1)C1CCOCC1 [CBK285352],118.719
24,N#Cc1ccc(-n2ncc(-c3cccc(C(F)(F)F)c3)n2)cc1 [CBK112675],86.0942
25,O=C(c1cccnc1NCc1ccc2c(c1)OCO2)N1CCNCC1 [CBK156112T],127.916
26,Cc1cccc(-c2cc(C(=O)Nc3sc4c(c3C#N)CCCCCC4)c3ccccc3n2)c1 [CBK262632],104.073
27,COc1ccc(CCNc2nc3c(c(=O)n(C)c(=O)n3C)n2Cc2ccccc2Br)cc1OC [CBK267495],123.975

# Looked up by structure from the entries so far:
row,Structure (SMILES),% of control remaining [%]
16,O=C(CCSc1nc(-c2ccco2)cc(C(F)(F)F)n1)Nc1ccc2c(c1)OCO2 [CBK267627],98.6473
13,CC(C)Nc1cncc(Sc2ccccc2O)n1 [CBK091438],107.586
20,CC(C)(C)C(=O)CSc1nnc(Cn2cnc(Cl)c2Cl)o1 [CBK011055],145.779

# Going on with the list:

row,Structure (SMILES),% of control remaining [%]
1,CCCCC(O)C[N+]1(C)CCC(c2ccccc2)CC1 (centres unmarked) [CBK006696I],137.306
2,CCCn1c(SCC(=O)c2ccc(CCNC(C)=O)cc2)n[nH]c1=O [CBK296965],130.12
3,Cc1cc(C)nc(N2CCC(CC(=O)NC(C)CCN3CCCCCC3)CC2)n1 (centres unmarked) [CBK285993],132.489
4,COc1ccc(-c2cnc(NCC3CC3)c(C(=O)NCc3ccccc3SC)c2)cc1 [CBK076437],142.242
5,OCCN(Cc1ccncc1)CC1(c2ccc(Cl)cc2)CC1 [CBK282782],94.8399
6,O=C(O)c1cccc2c1C(=O)N(Cc1cccnc1)C2 [CBK291193],87.0019
7,Cc1cc(C)c2c(N)c(C(=O)C(C)(C)C)sc2n1 [CBK115341],92.2771
8,COc1cc(C(=O)N2CCC3(CC2)CC(=O)c2cc(C)ccc2O3)cc(OC)c1C [CBK167805],99.7942
9,O=C(O)CNS(=O)(=O)c1cccc2cccnc12 [CBK034462],131.709
10,COc1ccc(CCNS(=O)(=O)N(C)C)cc1 [CBK264348],100
11,CCOC(=O)C1(C2CCCCC2)CCN(C(=O)c2cscn2)CC1 [CBK137101],108.3
12,COc1cc(S(=O)(=O)NCc2ccncc2)c(C)cc1C [CBK269988],101.812
13,Cc1ccc(-c2ccccc2CC2(C(=O)O)CCN(Cc3ccccc3F)CC2)c(C)c1 [CBK286418],78.4167
14,COc1ccc(-c2nc3c(n2O)CCc2c-3no[n+]2[O-])cc1OC [CBK262350],140.493
15,Cn1c(=O)c2c(nc(CN3CCOCC3)n2CC(=O)c2ccccc2)n(C)c1=O [CBK269195],150.158
16,O=C(Cn1nnc2ccccc2c1=O)NC1CCN2CCCCC12 (centres unmarked) [CBK305589],99.7013
17,CC(C)[C@@H](CO)Nc1cncc(-c2cccc(Cl)c2)n1 [CBK037261],118.912
18,NC(=O)C1CCN(CC(=O)Nc2ccc([N+](=O)[O-])cc2C(=O)c2ccccc2)CC1 [CBK265782],224.745
19,COc1ccc(C2CCN(C(=O)C3CCCO3)CC2)cc1 (centres unmarked) [CBK285473],102.731
20,Cn1c(=O)c2c(nc(NCc3ccccc3)n2C)n(C)c1=O [CBK139872],75.3221
21,O=C(O)C1CCCCC1C(=O)NCCCN1CCOCC1 (centres unmarked) [CBK286903],131.582
22,Cn1ncc2c(NCCN3CCOC3=O)nc(C(C)(C)C)nc21 [CBK307511],166.125
23,CCCc1n[nH]c(=S)n1CC(=O)NCc1ccc(Oc2cc(C)ccc2C)nc1 [CBK297742],156.135
24,CCCCCC1=NN(C(=O)c2ccccc2Br)C(O)(C(F)(F)F)C1 (centres unmarked) [CBK027223],104.719
25,O=C(O)Cc1sc(NCCN2CCOCC2)nc1-c1ccccc1 [CBK200113T],138.443
26,Cc1ccc(CN(Cc2[nH]cnc2C)C2CC(C)(C)NC(C)(C)C2)o1 [CBK283176],104.647
